PubChem BioAssay AID493246 – Drosophila RNAi Screening Center | 2011
The deposit covers about 21,000 reagents; shown is an unselected part of those with a known target gene and a result. Over the whole deposit, 429 (2%) were called active. 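Values are raw and not normalised between plates; calls rest on per-plate z-scores that were not deposited.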 Not given: the amount of reagent, the time to read-out.

Screen: 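Identify essential fly genes by loss of cell viability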 (primary screen)
System: Drosophila Kc and S2R+ cells
Reagents: long dsRNA against Drosophila genes
Detection: 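Cell number per well after knock-down, printed as raw plate values; calls were based on per-plate z-scores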
Scale: Kc cell number and S2R+ cell number: higher = more cells remaining
Active means: 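Counted as a hit if cell number falls by a z-score of at least 3 within its plate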

How did the screen score wat?
Kc cell number, rep 1: 1.72e6; Kc cell number, rep 2: 1.79e6; S2R+ cell number, rep 1: 1.11e6; S2R+ cell number, rep 2: 1.24e6; outcome: inactive

For CG12861, how do the results read?
Kc cell number, rep 1: 1.54e6; Kc cell number, rep 2: 1.53e6; S2R+ cell number, rep 1: 1.19e6; S2R+ cell number, rep 2: 1.30e6; outcome: inactive

What is on record for CG14518?
Kc cell number, rep 1: 1.60e6; Kc cell number, rep 2: 1.60e6; S2R+ cell number, rep 1: 1.06e6; S2R+ cell number, rep 2: 1.21e6; outcome: inactive

For eIF6, how do the results read?
Kc cell number, rep 1: 1.33e6; Kc cell number, rep 2: 1.39e6; S2R+ cell number, rep 1: 1.05e6; S2R+ cell number, rep 2: 1.07e6; outcome: inactive

How did the screen score CTCF?
Kc cell number, rep 1: 1.28e6; Kc cell number, rep 2: 1.33e6; S2R+ cell number, rep 1: 1.28e6; S2R+ cell number, rep 2: 1.22e6; outcome: inactive

For CG12012, what does the deposit list?
Kc cell number, rep 1: 1.47e6; Kc cell number, rep 2: 1.32e6; S2R+ cell number, rep 1: 1.05e6; S2R+ cell number, rep 2: 1.27e6; outcome: inactive

For Cpr56F, what was measured?
Kc cell number, rep 1: 1.57e6; Kc cell number, rep 2: 1.56e6; S2R+ cell number, rep 1: 1.23e6; S2R+ cell number, rep 2: 1.36e6; outcome: inactive

What is on record for Traf-like?
Kc cell number, rep 1: 6.72e5; S2R+ cell number, rep 1: 8.73e5; outcome: inactive

With CG10102 (retired record), how do the results read?
Kc cell number, rep 1: 1.51e6; Kc cell number, rep 2: 1.49e6; S2R+ cell number, rep 1: 1.08e6; S2R+ cell number, rep 2: 1.12e6; outcome: inactive

With Ugt49C1, how do the results read?
Kc cell number, rep 1: 1.48e6; Kc cell number, rep 2: 1.54e6; S2R+ cell number, rep 1: 1.36e6; S2R+ cell number, rep 2: 3.03e5; outcome: inactive

What is on record for vanin-like?
Kc cell number, rep 1: 1.11e6; Kc cell number, rep 2: 1.41e6; S2R+ cell number, rep 1: 1.07e6; S2R+ cell number, rep 2: 1.06e6; outcome: inactive

For CG4704, what does the deposit list?
Kc cell number, rep 1: 1.83e6; Kc cell number, rep 2: 1.69e6; S2R+ cell number, rep 1: 1.01e6; S2R+ cell number, rep 2: 1.17e6; outcome: inactive

Which result is listed for CG11396?
Kc cell number, rep 1: 1.68e6; Kc cell number, rep 2: 1.76e6; S2R+ cell number, rep 1: 1.43e6; S2R+ cell number, rep 2: 1.57e6; outcome: inactive

For Nthl1, what was measured?
Kc cell number, rep 1: 1.49e6; Kc cell number, rep 2: 1.67e6; S2R+ cell number, rep 1: 1.32e6; S2R+ cell number, rep 2: 3.88e5; outcome: inactive

Part of the list above, set out differently:
target	Kc cell number, rep 1	Kc cell number, rep 2	S2R+ cell number, rep 1	S2R+ cell number, rep 2	outcome
Ugt49C1	1.48e6	1.54e6	1.36e6	3.03e5	inactive
vanin-like	1.11e6	1.41e6	1.07e6	1.06e6	inactive
